Hit rate of the full screen: of about 400,000 compounds, about 13,000 (3.2%) were called active. Inconclusive means that the source gave no clear call. Such entries were picked first, then a sample of the others. The call rests on the fitted dose curve; in most records, active means well fitted cell-killing curve with a large enough effect; inconclusive means small, poorly fitted or top-dose-only effect, or effect the other way; inactive means flat fitted curve, though single readings scatter. A potency beside an inconclusive call is a rough fit, not a confirmed value.
Experiment: qHTS assay for MDR1-selective chemotherapeutics: Primary screen using the drug-selected MDR subline cells KB-V1; further: nearly all actives have a fitted effect of over 60% in size
Conditions: KB-V1 MDR cells viability, CellTiter-Glo, 72 h; activity change, negative = cytotoxicity: at 46.1 µM (top of the series)
Method in brief: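 Following 72 h at 37 degrees C with compound, KB-V1 cell viability was read by CellTiter-Glo luminescence, medium being phenol-red-free DMEM plus 10% FBS; concentration-response parameters came from normalized, curve-fitted qHTS data.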
With `CCCCCc1ccc(OCCOCCn2c[n+](C)c3ccccc32)c(CCCCC)c1` the Potency was “inactive”.
With `O=C(C=Cc1ccccc1)c1c[nH]c2ccccc2c1=O` the Potency was active: 7.31 µM.
In the case of `CC(=O)Nc1ccc(S(=O)(=O)c2ccnc3cc(Cl)ccc23)cc1`, the Potency is reported as inconclusive: 16.4 µM [cytotoxic, single point].
For `Cc1cc(/C=C2/SC(=O)NC2=O)c(C)n1-c1ccc(N2CCOCC2)cc1`, the Potency was inconclusive: 7.31 µM [cytotoxic, partial curve, poor fit].
In the case of `O=C(c1cc(F)c(F)cc1Cl)N1CCN(c2ncccn2)CC1`, the Potency is reported as “inactive”.
For `COC1=CC(=O)OC(c2cccc(C(F)(F)F)c2)C1` (configuration not stated), the Potency was “inactive”.
With `Cc1cc([N+](=O)[O-])ccc1NC(=O)CN1C2CCC1CC(NC(=O)NC13CC4CC(CC(C4)C1)C3)C2` (configuration not stated) the Potency was “inactive”.
In the case of `Cc1cc(C)c(OCC(=O)Nc2ccccc2N2CCCCC2)c(C)c1`, the Potency is reported as active: 16.4 µM.
For `CCCn1c(=O)[nH]c(=O)c2c1nc(-c1ccc(OC)c(Br)c1)n2CCOC`, the Potency was inconclusive: 23.1 µM [cytotoxic, single point].
With `CC(=O)CCC(=O)N1CCCC(CNC(=O)c2ccc(-c3ccccc3)cc2)C1` (configuration not stated) the Potency was inconclusive: 11.6 µM [cytotoxic, partial curve].
For `CCOC(=O)c1sc2ncnc(NCC(c3cccs3)N(C)C)c2c1C` (configuration not stated), the Potency was active: 20.6 µM.
With `C=CCn1c(C(C)(C)C)nc2ccccc21` the Potency was inconclusive: 16.4 µM [rising, partial curve, poor fit].
With `COc1ccc(CN(C)C(=O)c2ccc(OCC(=O)Nc3cccc(C(F)(F)F)c3)c(OC)c2)c(OC)c1` the Potency was inconclusive: 2.59 µM [cytotoxic, full curve].
With `O=C(O)/C=C/c1cn(-c2ccccc2)nc1-c1cc2ccccc2o1` the Potency was inconclusive: 0.082 µM [cytotoxic, full curve].
With `COc1ccc(C2=C/C(=C\c3cccc(OC(C)=O)c3)C(=O)O2)cc1` the Potency was inconclusive: 29.1 µM [rising, single point].
With `Cc1ccc(NC(=O)CCS(=O)(=O)c2cccc3nonc23)cc1Cl` the Potency was inconclusive: 29.1 µM [cytotoxic, single point].
With `COc1ccc(C(=O)Cc2cnn(-c3ccccc3)c2)c(O)c1` the Potency was “inactive”.
In the case of `CCOC(=O)N1CCN(C(=O)c2ccccc2Oc2ccccc2)CC1`, the Potency is reported as inconclusive: 18.4 µM [cytotoxic, partial curve].
In the case of `CN(C(=O)CN1C(=O)/C(=C/c2ccccc2Cl)SC1=S)C1CCS(=O)(=O)C1` (configuration not stated), the Potency is reported as inconclusive: 18.4 µM [rising, single point].
For `CC(=O)c1cccc(NC(=O)C(CC(C)C)NC(=O)C2CCCCC2)c1` (configuration not stated), the Potency was inconclusive: 32.6 µM [cytotoxic, single point].
In the case of `CCCCc1ccc(NC(=O)c2ccc(N(C)S(C)(=O)=O)cc2)cc1`, the Potency is reported as “inactive”.
With `O=C(Nc1cc(S(=O)(=O)N2CCOCC2)ccc1N1CCCCC1)c1ccc(Cl)cc1` the Potency was “inactive”.
In the case of `CCC(Oc1ccc(Br)cc1)C(=O)N1CCN(c2ncccn2)CC1` (configuration not stated), the Potency is reported as inconclusive: 8.2 µM [cytotoxic, partial curve].
With `N#C/C(C(N)=O)=c1/ccc2c(c1)N1C3=C(CCCC3)CC3CCCCC31N=2` (configuration not stated) the Potency was active: 23.1 µM.
With `CCOC(=O)C1=C(Cn2cnc3ccccc32)NC(=O)NC1c1cc(C)ccc1C` (configuration not stated) the Potency was inconclusive: 29.1 µM [cytotoxic, single point].
With `Cc1cc(C)c(C(N)=O)c(Nc2ccc3c(c2)OCCO3)n1` the Potency was inconclusive: 7.31 µM [rising, partial curve, poor fit].
For `O=[N+]([O-])c1cc2c(cc1Br)CCN2`, the Potency was inconclusive: 29.1 µM [rising, single point].
With `COc1ccc(/C=N/NC(=O)c2ccncc2)cc1CN1CCN(c2ccc(F)cc2)CC1` the Potency was “inactive”.
In the case of `COC(=O)c1ccc(NC(=S)NC2CCc3ccccc32)cc1` (configuration not stated), the Potency is reported as inconclusive: 29.1 µM [cytotoxic, single point].
With `Oc1c(C(c2ccc(Cl)cc2)N2CCC3(CC2)OCCO3)sc2nc(-c3ccco3)nn12` (configuration not stated) the Potency was “inactive”.
In the case of `C[C@]1(C(=O)NCc2cc(F)cc(C(F)(F)F)c2)C=C[C@@H](Cc2ccccc2)N1C(=O)c1ccccc1`, the Potency is reported as inconclusive: 29.1 µM [cytotoxic, partial curve, poor fit].
For `Cc1nn(-c2ccccc2)c2c1C(c1cccnc1)N1C=C(S(=O)(=O)N3CCCCC3)C=CC1=N2` (configuration not stated), the Potency was inconclusive: 18.4 µM [rising, partial curve, poor fit].
For `Cc1c(CC(=O)NCCCC(=O)O)c(=O)oc2cc3oc4c(c3cc12)CCCC4`, the Potency was inconclusive: 32.6 µM [rising, partial curve, poor fit].
In the case of `Cc1ccc(C(=O)Oc2ccc(/C=C3\C(=N)N4N=C(N5CCOCC5)SC4=NC3=O)cc2)cc1`, the activity change, negative = cytotoxicity is reported as inconclusive: 10.8%.
In the case of `CCC(CC)c1nnc(NC(=O)c2cccc(S(=O)(=O)N3CCOCC3)c2)s1`, the Potency is reported as “inactive”.
For `Cc1ccc(S(=O)(=O)c2nc(NN(C)C)sc2Cl)cc1`, the Potency was inconclusive: 11.6 µM [cytotoxic, partial curve].
For `CCN(c1ccccc1)S(=O)(=O)c1ccc(OC)c(OC)c1`, the Potency was inconclusive: 14.6 µM [cytotoxic, partial curve, poor fit].
In the case of `COc1cc(/C=N/N(C)c2ccccc2)ccc1O`, the Potency is reported as inconclusive: 5.8 µM [cytotoxic, full curve].
For `CCC(CC)C(=O)NCCc1cc2ccc(OC)cc2[nH]c1=O`, the Potency was inconclusive: 14.6 µM [cytotoxic, partial curve, poor fit].
With `C/C(=N\Nc1ccc(Cl)nn1)c1ccccc1O` the Potency was inconclusive: 8.2 µM [cytotoxic, partial curve].
With `N#CC(C#N)=C1C=CC=CN1/C(=C\c1ccccc1Cl)C(=O)c1ccccc1` the Potency was inconclusive: 18.4 µM [cytotoxic, single point].
In the case of `CC(C)(C)NC(=S)N1CCC(C(=O)c2ccc(F)cc2)CC1`, the Potency is reported as “inactive”.
With `Cc1ccc(SCc2ccc(C(=O)Nc3cccc([N+](=O)[O-])c3C)cc2)cc1` the Potency was inconclusive: 5.8 µM [cytotoxic, partial curve].
In the case of `CN1CCN(S(=O)(=O)c2cccc(C(=O)N(C)C(c3ccccc3)c3ccccc3)c2)CC1`, the Potency is reported as inconclusive: 2.59 µM [cytotoxic, full curve].
With `Cc1n[nH]c(=O)c2c(NC(=O)CSc3nnc(C4CC4)n3C)oc(C)c12` the Potency was inconclusive: 29.1 µM [rising, single point].
For `O=C(CCC(=O)Nc1ccccc1Cl)NN=C1CCCC1`, the Potency was inconclusive: 29.1 µM [rising, single point].
For `CC1CC(C)CN(S(=O)(=O)CC23CCC(CC2=O)C3(C)C)C1` (configuration not stated), the Potency was “inactive”.
For `CCOc1ccc2nc(SCc3ccccc3C#N)sc2c1`, the Potency was inconclusive: 29.1 µM [cytotoxic, single point].
In the case of `CCOc1ccccc1N(C)C(=O)Cn1ncc2c([nH]c3ccccc32)c1=O`, the Potency is reported as inconclusive: 29.1 µM [cytotoxic, single point].
For `CCOC(=O)C1CCCN(CC(=O)/C=C2/N(C)c3ccccc3C2(C)C)C1` (configuration not stated), the Potency was “inactive”.
For `Fc1ccc(NC(=S)NNc2ncc(C(F)(F)F)cc2Cl)c(F)c1`, the Potency was active: 14.6 µM.
In the case of `c1ccc(-c2nc(NCC3CCCO3)c3oc4ccccc4c3n2)cc1` (configuration not stated), the Potency is reported as active: 3.66 µM.
For `CCn1c(=O)c(C(=O)Nc2ccc(C(C)=O)cc2)nc2ccccc21`, the Potency was “inactive”.
In the case of `Cc1cc(NCCN2CCOCC2)c2ccc3ccccc3c2n1`, the Potency is reported as inconclusive: 29.1 µM [cytotoxic, single point].
For `COc1ccc(C2Nc3ccccc3C(=O)N2c2ccc(F)cc2)cc1CSc1ccccn1` (configuration not stated), the Potency was “inactive”.
With `N=c1c(S(=O)(=O)c2ccc(Cl)cc2)cc2c(=O)n3ccccc3nc2n1Cc1cccnc1` the Potency was “inactive”.
With `O=C1N=C(N2CCCC2C(=O)O)S/C1=C\c1ccco1` (configuration not stated) the Potency was “inactive”.
With `CN1OC[C@@H]2CN[C@H](c3cccc(-c4cc(Cl)cc(Cl)c4)c3)C[C@@H]21` the Potency was “inactive”.
In the case of `O=C(O)c1c[nH]c2c([N+](=O)[O-])cccc2c1=O`, the Potency is reported as inconclusive: 20.6 µM [cytotoxic, single point].
In the case of `CCOc1ccc(NC(=O)CN(C)C(=O)CCSc2ccc(F)cc2)cc1OCC`, the Potency is reported as inconclusive: 29.1 µM [cytotoxic, single point].
In the case of `O=C(CNS(=O)(=O)c1ccccc1)Nc1ccc(C(F)(F)F)cc1`, the Potency is reported as “inactive”.
With `CC(=O)c1c(C)nn(C(=O)N2CCOCC2)c1C` the Potency was inconclusive: 20.6 µM [rising, single point].
In the case of `Cc1cnnn1-c1cccc([N+](=O)[O-])c1`, the Potency is reported as inconclusive: 32.6 µM [rising, single point].
In the case of `Cc1nn(C(=O)c2ccc(Br)cc2)c(C)c1S(=O)(=O)N1CCOCC1`, the Potency is reported as “inactive”.
With `Cc1ccc(C(=O)N2CCN=C2SCc2ccc([N+](=O)[O-])cc2)cc1C` the Potency was inconclusive: 13 µM [cytotoxic, partial curve].
In the case of `O=C(Nc1ccc(Nc2ccccc2)cc1)c1cccc(F)c1`, the Potency is reported as “inactive”.
In the case of `O=C(NCc1ccccc1)c1cc2nc(C3CC3)cc(C(F)(F)F)n2n1`, the Potency is reported as active: 23.1 µM.
For `CC(C)C(=O)Nc1cccc(S(=O)(=O)c2cccc(NC(=O)C(C)C)c2)c1`, the Potency was “inactive”.
For `CC(C)(C)c1ccc(-n2ncc3c2CCCC3NC(=O)CN2CCCC2=O)cc1` (configuration not stated), the Potency was active: 8.2 µM.
With `CC(C)N=C1NN=C(c2ccc(F)cc2)CS1` the Potency was inconclusive: 18.4 µM [cytotoxic, single point].
With `CCOC(=O)c1cc(C#N)c(N2CCCCC2)nc1-c1ccccc1` the Potency was inconclusive: 29.1 µM [cytotoxic, single point].
In the case of `CCN(C(=O)Cn1nc(C)c([N+](=O)[O-])c1C)C1CCS(=O)(=O)C1` (configuration not stated), the Potency is reported as “inactive”.
On the % scale 0 is the no-effect control and ±100 the full control effect; potency means the concentration at half of the fitted maximal effect.
